Data: the supplement of paper PMC12823440, “Inhibitors supercharge kinase turnover through native proteolytic circuits” (Nature, 2025)
Counter-ions that a name gives are not always drawn. Some of the results follow. The calls rarely recur for the same compound in another form.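 In K562 cells expressing nanoluciferase-fused kinases, luminescence was recorded at 4 h intervals between 2 and 18 h, normalized as percent of control with DMSO at 100% and a positive control at 0%. A significant (2 sigma) signal drop marks a time point as decreased. The authors' rule for a hit is not shown and takes in more than the number of time points.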

Amino acid sequences for entries named in this document (tags omitted). A change or cut given only in a name is not applied to a line headed by its entry.
UniProt O15530: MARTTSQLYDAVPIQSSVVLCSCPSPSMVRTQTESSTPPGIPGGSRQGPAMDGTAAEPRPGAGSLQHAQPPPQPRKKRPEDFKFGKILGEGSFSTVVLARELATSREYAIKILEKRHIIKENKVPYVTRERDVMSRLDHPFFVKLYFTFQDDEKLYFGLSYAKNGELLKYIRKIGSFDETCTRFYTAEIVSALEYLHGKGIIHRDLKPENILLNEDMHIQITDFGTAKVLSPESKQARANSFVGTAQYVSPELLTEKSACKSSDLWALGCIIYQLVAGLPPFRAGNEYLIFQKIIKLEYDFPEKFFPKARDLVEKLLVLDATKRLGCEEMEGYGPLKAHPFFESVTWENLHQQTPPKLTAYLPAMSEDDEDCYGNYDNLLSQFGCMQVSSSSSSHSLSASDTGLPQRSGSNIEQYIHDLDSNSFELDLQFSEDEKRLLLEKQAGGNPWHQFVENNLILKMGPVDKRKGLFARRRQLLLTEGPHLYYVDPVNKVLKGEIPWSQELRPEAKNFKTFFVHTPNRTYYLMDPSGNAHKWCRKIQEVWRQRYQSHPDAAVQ
UniProt P42356, whole entry, looked up: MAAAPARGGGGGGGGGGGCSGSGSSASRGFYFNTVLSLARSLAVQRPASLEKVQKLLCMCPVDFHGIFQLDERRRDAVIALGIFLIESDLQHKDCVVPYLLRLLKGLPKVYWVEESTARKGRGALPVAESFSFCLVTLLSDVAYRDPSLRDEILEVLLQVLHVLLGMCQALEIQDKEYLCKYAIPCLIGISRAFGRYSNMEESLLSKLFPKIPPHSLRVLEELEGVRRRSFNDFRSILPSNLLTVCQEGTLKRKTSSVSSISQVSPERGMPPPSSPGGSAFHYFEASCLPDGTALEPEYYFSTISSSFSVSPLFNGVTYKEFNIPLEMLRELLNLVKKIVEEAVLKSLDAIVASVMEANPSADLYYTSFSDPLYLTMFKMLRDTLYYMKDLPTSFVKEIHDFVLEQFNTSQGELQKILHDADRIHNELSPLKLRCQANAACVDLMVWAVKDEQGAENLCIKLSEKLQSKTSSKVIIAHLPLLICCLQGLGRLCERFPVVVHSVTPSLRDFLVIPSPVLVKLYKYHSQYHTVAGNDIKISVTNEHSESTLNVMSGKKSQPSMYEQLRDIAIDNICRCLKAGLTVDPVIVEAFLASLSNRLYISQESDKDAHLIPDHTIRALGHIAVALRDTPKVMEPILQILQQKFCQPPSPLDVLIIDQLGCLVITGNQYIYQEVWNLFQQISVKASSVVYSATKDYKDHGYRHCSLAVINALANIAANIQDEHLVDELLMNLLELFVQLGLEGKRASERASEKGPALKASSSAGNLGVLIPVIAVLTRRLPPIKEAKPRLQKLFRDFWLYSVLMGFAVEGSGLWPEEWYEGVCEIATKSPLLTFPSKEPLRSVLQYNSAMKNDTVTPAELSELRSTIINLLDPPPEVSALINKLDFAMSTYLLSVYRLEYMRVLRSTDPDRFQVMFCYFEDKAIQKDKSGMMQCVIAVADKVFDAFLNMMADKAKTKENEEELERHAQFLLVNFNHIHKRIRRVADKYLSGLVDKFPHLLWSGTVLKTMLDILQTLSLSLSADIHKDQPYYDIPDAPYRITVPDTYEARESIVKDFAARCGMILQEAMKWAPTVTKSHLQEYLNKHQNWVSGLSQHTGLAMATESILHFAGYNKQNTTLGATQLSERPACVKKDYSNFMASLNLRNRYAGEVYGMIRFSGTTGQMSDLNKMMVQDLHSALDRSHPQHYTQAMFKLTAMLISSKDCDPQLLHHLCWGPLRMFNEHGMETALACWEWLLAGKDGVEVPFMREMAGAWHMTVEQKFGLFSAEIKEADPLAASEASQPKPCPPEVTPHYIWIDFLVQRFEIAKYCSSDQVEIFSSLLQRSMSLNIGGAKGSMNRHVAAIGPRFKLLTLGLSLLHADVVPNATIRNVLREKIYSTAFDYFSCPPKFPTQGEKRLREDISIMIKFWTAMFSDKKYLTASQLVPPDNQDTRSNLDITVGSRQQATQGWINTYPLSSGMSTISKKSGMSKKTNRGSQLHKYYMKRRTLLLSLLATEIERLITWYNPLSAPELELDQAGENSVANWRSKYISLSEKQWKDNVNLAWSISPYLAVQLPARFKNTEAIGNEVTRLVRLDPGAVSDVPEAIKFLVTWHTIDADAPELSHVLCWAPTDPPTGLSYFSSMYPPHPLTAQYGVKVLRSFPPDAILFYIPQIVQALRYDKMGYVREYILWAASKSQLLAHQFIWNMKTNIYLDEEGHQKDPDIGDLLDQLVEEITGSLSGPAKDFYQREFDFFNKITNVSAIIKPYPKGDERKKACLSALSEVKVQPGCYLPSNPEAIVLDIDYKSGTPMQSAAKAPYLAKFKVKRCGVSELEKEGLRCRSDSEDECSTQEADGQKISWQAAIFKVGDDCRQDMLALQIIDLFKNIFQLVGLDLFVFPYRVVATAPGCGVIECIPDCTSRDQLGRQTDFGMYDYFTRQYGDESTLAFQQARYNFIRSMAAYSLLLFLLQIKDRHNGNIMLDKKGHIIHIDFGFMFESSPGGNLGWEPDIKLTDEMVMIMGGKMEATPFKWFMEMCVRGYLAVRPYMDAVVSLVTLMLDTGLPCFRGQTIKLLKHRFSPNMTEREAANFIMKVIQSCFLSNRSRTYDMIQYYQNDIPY
UniProt P53350, whole entry: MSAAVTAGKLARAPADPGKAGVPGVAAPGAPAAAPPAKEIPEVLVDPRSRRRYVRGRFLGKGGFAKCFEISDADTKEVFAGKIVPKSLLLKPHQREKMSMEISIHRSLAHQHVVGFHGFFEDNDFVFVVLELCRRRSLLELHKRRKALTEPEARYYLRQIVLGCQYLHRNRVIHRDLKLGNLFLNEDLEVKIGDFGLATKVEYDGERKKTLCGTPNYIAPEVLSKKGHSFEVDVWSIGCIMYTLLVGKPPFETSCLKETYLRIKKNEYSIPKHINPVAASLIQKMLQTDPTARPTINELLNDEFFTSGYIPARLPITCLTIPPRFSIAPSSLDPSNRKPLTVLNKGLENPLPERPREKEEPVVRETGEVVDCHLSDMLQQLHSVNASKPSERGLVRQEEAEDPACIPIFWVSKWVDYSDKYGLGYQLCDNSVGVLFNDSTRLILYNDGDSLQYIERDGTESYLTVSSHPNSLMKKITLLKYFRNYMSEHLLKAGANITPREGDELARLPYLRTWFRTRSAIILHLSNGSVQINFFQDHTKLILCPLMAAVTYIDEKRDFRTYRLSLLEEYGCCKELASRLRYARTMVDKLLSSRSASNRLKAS
UniProt Q05397, whole entry, looked up: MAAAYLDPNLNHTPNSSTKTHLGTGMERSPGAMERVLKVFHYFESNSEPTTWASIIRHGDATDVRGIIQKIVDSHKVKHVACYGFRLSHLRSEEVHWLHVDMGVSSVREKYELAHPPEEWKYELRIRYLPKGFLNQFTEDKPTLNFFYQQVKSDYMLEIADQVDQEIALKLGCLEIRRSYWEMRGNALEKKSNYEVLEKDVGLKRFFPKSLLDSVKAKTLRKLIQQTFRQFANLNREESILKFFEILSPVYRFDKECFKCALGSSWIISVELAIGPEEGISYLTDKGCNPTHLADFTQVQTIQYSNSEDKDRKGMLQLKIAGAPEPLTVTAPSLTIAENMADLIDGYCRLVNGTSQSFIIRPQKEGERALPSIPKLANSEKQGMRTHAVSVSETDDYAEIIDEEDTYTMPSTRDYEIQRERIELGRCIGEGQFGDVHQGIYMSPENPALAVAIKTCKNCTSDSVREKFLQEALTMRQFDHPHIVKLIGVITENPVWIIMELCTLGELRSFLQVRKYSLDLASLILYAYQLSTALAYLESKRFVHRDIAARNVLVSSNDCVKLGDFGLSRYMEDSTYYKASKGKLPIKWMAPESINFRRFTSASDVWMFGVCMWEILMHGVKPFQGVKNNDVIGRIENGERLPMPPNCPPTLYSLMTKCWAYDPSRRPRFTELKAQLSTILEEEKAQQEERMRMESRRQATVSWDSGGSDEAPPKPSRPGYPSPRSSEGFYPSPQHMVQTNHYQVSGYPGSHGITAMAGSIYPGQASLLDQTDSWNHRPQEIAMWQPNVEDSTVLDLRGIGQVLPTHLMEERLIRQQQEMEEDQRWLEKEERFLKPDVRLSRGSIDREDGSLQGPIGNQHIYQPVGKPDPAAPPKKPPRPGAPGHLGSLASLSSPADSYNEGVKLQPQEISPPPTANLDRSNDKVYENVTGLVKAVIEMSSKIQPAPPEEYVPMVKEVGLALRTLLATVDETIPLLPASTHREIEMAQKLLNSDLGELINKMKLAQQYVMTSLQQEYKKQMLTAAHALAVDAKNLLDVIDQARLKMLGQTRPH
UniProt Q13546: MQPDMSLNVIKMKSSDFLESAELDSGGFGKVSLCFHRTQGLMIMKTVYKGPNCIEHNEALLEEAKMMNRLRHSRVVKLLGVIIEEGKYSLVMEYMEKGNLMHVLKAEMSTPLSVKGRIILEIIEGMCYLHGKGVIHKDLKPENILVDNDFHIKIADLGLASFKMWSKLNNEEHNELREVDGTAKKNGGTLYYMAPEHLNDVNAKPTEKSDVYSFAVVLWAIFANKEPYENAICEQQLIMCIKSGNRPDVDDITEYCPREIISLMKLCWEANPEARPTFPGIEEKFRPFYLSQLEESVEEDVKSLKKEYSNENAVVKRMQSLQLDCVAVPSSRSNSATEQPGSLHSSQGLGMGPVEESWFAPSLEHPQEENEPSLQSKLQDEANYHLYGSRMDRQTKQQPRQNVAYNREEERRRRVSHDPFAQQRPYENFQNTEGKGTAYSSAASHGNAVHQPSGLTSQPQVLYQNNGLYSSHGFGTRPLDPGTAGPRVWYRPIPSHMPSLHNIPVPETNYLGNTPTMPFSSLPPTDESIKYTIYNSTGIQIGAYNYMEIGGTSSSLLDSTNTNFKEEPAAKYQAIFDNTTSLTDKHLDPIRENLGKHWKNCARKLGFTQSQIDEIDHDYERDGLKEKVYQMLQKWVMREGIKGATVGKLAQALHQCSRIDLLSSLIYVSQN
UniProt Q01974, whole entry: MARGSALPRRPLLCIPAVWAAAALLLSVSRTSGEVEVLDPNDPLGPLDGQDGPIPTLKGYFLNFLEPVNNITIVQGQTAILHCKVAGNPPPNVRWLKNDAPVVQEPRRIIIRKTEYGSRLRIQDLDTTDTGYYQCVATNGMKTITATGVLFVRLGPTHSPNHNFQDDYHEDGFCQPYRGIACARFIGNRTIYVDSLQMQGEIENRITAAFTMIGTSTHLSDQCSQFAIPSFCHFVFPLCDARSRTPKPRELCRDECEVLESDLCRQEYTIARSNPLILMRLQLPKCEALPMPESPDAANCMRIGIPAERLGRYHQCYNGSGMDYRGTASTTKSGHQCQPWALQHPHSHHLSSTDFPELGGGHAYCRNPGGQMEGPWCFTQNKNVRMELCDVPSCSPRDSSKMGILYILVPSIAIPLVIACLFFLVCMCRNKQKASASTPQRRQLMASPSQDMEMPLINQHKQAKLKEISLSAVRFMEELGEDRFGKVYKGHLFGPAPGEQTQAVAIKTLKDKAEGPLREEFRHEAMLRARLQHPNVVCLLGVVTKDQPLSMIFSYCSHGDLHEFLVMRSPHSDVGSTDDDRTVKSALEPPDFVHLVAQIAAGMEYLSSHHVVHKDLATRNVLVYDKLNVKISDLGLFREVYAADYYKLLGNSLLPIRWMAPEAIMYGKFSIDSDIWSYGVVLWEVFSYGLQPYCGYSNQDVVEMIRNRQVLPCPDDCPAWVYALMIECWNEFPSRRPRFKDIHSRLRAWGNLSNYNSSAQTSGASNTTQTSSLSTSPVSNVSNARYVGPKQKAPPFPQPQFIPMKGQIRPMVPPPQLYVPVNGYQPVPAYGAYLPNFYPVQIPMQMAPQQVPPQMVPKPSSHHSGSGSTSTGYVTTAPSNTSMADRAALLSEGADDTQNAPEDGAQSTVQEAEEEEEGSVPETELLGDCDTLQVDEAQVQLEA

What was measured:
Assay in all cases: kinase-Nluc reporter destabilization hit call (1 = scored as downregulated) (binary); higher = compound decreases kinase abundance
Details in all cases: K562, 2-18 h
[1] = biological target: PDPK1 (UniProt O15530)
[2] = biological target: PIK4CA (UniProt P42356)
[3] = biological target: PIK4CB (UniProt Q9UBF8)
[4] = biological target: PLK1 (UniProt P53350)
[5] = biological target: PRKAA1 (UniProt Q13131)
[6] = biological target: PRKCA (UniProt P17252)
[7] = biological target: PTK2 (UniProt Q05397)
[8] = biological target: PTK2B (UniProt Q14289)
[9] = biological target: RAF1 (UniProt P04049)
[10] = biological target: RAF1_S257L (clone: RAF1_mut) (UniProt P04049)
[11] = biological target: RET (UniProt P07949)
[12] = biological target: RET_M918T (clone: RET_mut) (UniProt P07949)
[13] = biological target: RIOK1 (UniProt Q9BRS2)
[14] = biological target: RIPK1 (UniProt Q13546)
[15] = biological target: RIPK2 (UniProt O43353)
[16] = biological target: ROR2 (UniProt Q01974)
[17] = biological target: RPS6KA1 (UniProt Q15418)
[18] = biological target: SPHK1 (UniProt Q9NYA1)
[19] = biological target: SRC (UniProt P12931)
[20] = biological target: STK24 (UniProt Q9Y6E0)

Measured: kinase-Nluc reporter destabilization hit call

Clc1ccc(C2(c3ccc(-c4cn[nH]c4)cc3)CCNCC2)cc1
inactive: [1]; 10 µM 0 | [2]; 10 µM 0 | [3]; 10 µM 0 | [4]; 10 µM 0 | [5]; 10 µM 0 | [6]; 10 µM 0 | [7]; 10 µM 0 | [8]; 10 µM 0 | [9]; 10 µM 0 | [10]; 10 µM 0 | [11]; 10 µM 0 | [12]; 10 µM 0 | [13]; 10 µM 0 | [14]; 10 µM 0 | [15]; 10 µM 0 | [16]; 10 µM 0 | [17]; 10 µM 0 | [18]; 10 µM 0 | [19]; 10 µM 0 | [20]; 10 µM 0

CC(C)Oc1ccc(-c2nn([C@@H](C)c3oc4ccc(F)cc4c(=O)c3-c3cccc(F)c3)c3ncnc(N)c23)cc1F [Umbralisib (hydrochloride)]
inactive: [1]; 2.5 µM 0 | [2]; 2.5 µM 0 | [3]; 2.5 µM 0 | [4]; 2.5 µM 0 | [5]; 2.5 µM 0 | [6]; 2.5 µM 0 | [7]; 2.5 µM 0 | [8]; 2.5 µM 0 | [9]; 2.5 µM 0 | [10]; 2.5 µM 0 | [11]; 2.5 µM 0 | [12]; 2.5 µM 0 | [13]; 2.5 µM 0 | [14]; 2.5 µM 0 | [15]; 2.5 µM 0 | [16]; 2.5 µM 0 | [17]; 2.5 µM 0 | [18]; 2.5 µM 0 | [19]; 2.5 µM 0 | [20]; 2.5 µM 0

CN1CCCN(C(=O)c2cccc(-c3ccc(/C=C4/C(=O)Nc5ccc(Cl)cc54)o3)c2)CC1 [CX-6258 (hydrochloride hydrate)]
inactive: [1]; 2.5 µM 0 | [2]; 2.5 µM 0 | [3]; 2.5 µM 0 | [4]; 2.5 µM 0 | [5]; 2.5 µM 0 | [6]; 2.5 µM 0 | [7]; 2.5 µM 0 | [8]; 2.5 µM 0 | [9]; 2.5 µM 0 | [10]; 2.5 µM 0 | [11]; 2.5 µM 0 | [12]; 2.5 µM 0 | [13]; 2.5 µM 0 | [14]; 2.5 µM 0 | [15]; 2.5 µM 0 | [16]; 2.5 µM 0 | [17]; 2.5 µM 0 | [18]; 2.5 µM 0 | [19]; 2.5 µM 0 | [20]; 2.5 µM 0

Cc1[nH]c(/C=C2\C(=O)Nc3ccc(F)cc32)c(C)c1C(=O)NCCN1CCCC1 [Toceranib]
inactive: [1]; 2 µM 0 | [2]; 2 µM 0 | [3]; 2 µM 0 | [4]; 2 µM 0 | [5]; 2 µM 0 | [6]; 2 µM 0 | [7]; 2 µM 0 | [8]; 2 µM 0 | [9]; 2 µM 0 | [10]; 2 µM 0 | [11]; 2 µM 0 | [12]; 2 µM 0 | [13]; 2 µM 0 | [14]; 2 µM 0 | [15]; 2 µM 0 | [16]; 2 µM 0 | [17]; 2 µM 0 | [18]; 2 µM 0 | [19]; 2 µM 0 | [20]; 2 µM 0

Nc1ncnc2c1c(-c1ccc(Oc3ccccc3)cc1)nn2[C@@H]1CCCNC1
active: [14]; 2.5 µM 1
inactive: [1]; 2.5 µM 0 | [2]; 2.5 µM 0 | [3]; 2.5 µM 0 | [4]; 2.5 µM 0 | [5]; 2.5 µM 0 | [6]; 2.5 µM 0 | [7]; 2.5 µM 0 | [8]; 2.5 µM 0 | [9]; 2.5 µM 0 | [10]; 2.5 µM 0 | [11]; 2.5 µM 0 | [12]; 2.5 µM 0 | [13]; 2.5 µM 0 | [15]; 2.5 µM 0 | [16]; 2.5 µM 0 | [17]; 2.5 µM 0 | [18]; 2.5 µM 0 | [19]; 2.5 µM 0 | [20]; 2.5 µM 0

Nc1cncc(-c2cn3ccnc3c(Nc3ccc(N4CCN(C5COC5)CC4)cc3)n2)n1 [Lanraplenib]
inactive: [1]; 10 µM 0 | [2]; 10 µM 0 | [3]; 10 µM 0 | [4]; 10 µM 0 | [5]; 10 µM 0 | [6]; 10 µM 0 | [7]; 10 µM 0 | [8]; 10 µM 0 | [9]; 10 µM 0 | [10]; 10 µM 0 | [11]; 10 µM 0 | [12]; 10 µM 0 | [13]; 10 µM 0 | [14]; 10 µM 0 | [15]; 10 µM 0 | [16]; 10 µM 0 | [17]; 10 µM 0 | [18]; 10 µM 0 | [19]; 10 µM 0 | [20]; 10 µM 0

CCCC(=O)Nc1ncnc2c1ncn2[C@@H]1O[C@@H]2COP(=O)(O)O[C@H]2[C@H]1OC(=O)CCC [Bucladesine (calcium)]
inactive: [1]; 10 µM 0 | [2]; 10 µM 0 | [3]; 10 µM 0 | [4]; 10 µM 0 | [5]; 10 µM 0 | [6]; 10 µM 0 | [7]; 10 µM 0 | [8]; 10 µM 0 | [9]; 10 µM 0 | [10]; 10 µM 0 | [11]; 10 µM 0 | [12]; 10 µM 0 | [13]; 10 µM 0 | [14]; 10 µM 0 | [15]; 10 µM 0 | [16]; 10 µM 0 | [17]; 10 µM 0 | [18]; 10 µM 0 | [19]; 10 µM 0 | [20]; 10 µM 0

Arranged by number of heavy atoms (high to low): 3 of the compounds above.
CN1CCCN(C(=O)c2cccc(-c3ccc(/C=C4/C(=O)Nc5ccc(Cl)cc54)o3)c2)CC1 [CX-6258 (hydrochloride hydrate)]
inactive: [1]; 2.5 µM 0 | [2]; 2.5 µM 0 | [3]; 2.5 µM 0 | [4]; 2.5 µM 0 | [5]; 2.5 µM 0 | [6]; 2.5 µM 0 | [7]; 2.5 µM 0 | [8]; 2.5 µM 0 | [9]; 2.5 µM 0 | [10]; 2.5 µM 0 | [11]; 2.5 µM 0 | [12]; 2.5 µM 0 | [13]; 2.5 µM 0 | [14]; 2.5 µM 0 | [15]; 2.5 µM 0 | [16]; 2.5 µM 0 | [17]; 2.5 µM 0 | [18]; 2.5 µM 0 | [19]; 2.5 µM 0 | [20]; 2.5 µM 0

CCCC(=O)Nc1ncnc2c1ncn2[C@@H]1O[C@@H]2COP(=O)(O)O[C@H]2[C@H]1OC(=O)CCC [Bucladesine (calcium)]
inactive: [1]; 10 µM 0 | [2]; 10 µM 0 | [3]; 10 µM 0 | [4]; 10 µM 0 | [5]; 10 µM 0 | [6]; 10 µM 0 | [7]; 10 µM 0 | [8]; 10 µM 0 | [9]; 10 µM 0 | [10]; 10 µM 0 | [11]; 10 µM 0 | [12]; 10 µM 0 | [13]; 10 µM 0 | [14]; 10 µM 0 | [15]; 10 µM 0 | [16]; 10 µM 0 | [17]; 10 µM 0 | [18]; 10 µM 0 | [19]; 10 µM 0 | [20]; 10 µM 0

Nc1ncnc2c1c(-c1ccc(Oc3ccccc3)cc1)nn2[C@@H]1CCCNC1
active: [14]; 2.5 µM 1
inactive: [1]; 2.5 µM 0 | [2]; 2.5 µM 0 | [3]; 2.5 µM 0 | [4]; 2.5 µM 0 | [5]; 2.5 µM 0 | [6]; 2.5 µM 0 | [7]; 2.5 µM 0 | [8]; 2.5 µM 0 | [9]; 2.5 µM 0 | [10]; 2.5 µM 0 | [11]; 2.5 µM 0 | [12]; 2.5 µM 0 | [13]; 2.5 µM 0 | [15]; 2.5 µM 0 | [16]; 2.5 µM 0 | [17]; 2.5 µM 0 | [18]; 2.5 µM 0 | [19]; 2.5 µM 0 | [20]; 2.5 µM 0

More records follow:

CN(C)C(=N)NC(=N)N [Metformin]
inactive: [1]; 10 µM 0 | [2]; 10 µM 0 | [3]; 10 µM 0 | [4]; 10 µM 0 | [5]; 10 µM 0 | [6]; 10 µM 0 | [7]; 10 µM 0 | [8]; 10 µM 0 | [9]; 10 µM 0 | [10]; 10 µM 0 | [11]; 10 µM 0 | [12]; 10 µM 0 | [13]; 10 µM 0 | [14]; 10 µM 0 | [15]; 10 µM 0 | [16]; 10 µM 0 | [17]; 10 µM 0 | [18]; 10 µM 0 | [19]; 10 µM 0 | [20]; 10 µM 0

COc1cc2c(Oc3ccc4[nH]c(C)cc4c3F)ncnc2cc1OCCCN1CCCC1 [Cediranib]
inactive: [1]; 2.5 µM 0 | [2]; 2.5 µM 0 | [3]; 2.5 µM 0 | [4]; 2.5 µM 0 | [5]; 2.5 µM 0 | [6]; 2.5 µM 0 | [7]; 2.5 µM 0 | [8]; 2.5 µM 0 | [9]; 2.5 µM 0 | [10]; 2.5 µM 0 | [11]; 2.5 µM 0 | [12]; 2.5 µM 0 | [13]; 2.5 µM 0 | [14]; 2.5 µM 0 | [15]; 2.5 µM 0 | [16]; 2.5 µM 0 | [17]; 2.5 µM 0 | [18]; 2.5 µM 0 | [19]; 2.5 µM 0 | [20]; 2.5 µM 0
